For 2 molecules, binding results are on record in patent publication US20160145328A1.

Results are given in words; binding and its absence hold for the method and conditions named. Some binding calls cover weakened binding; strength is not graded here.

In experiment [1] the target is Hen-Egg-Lysozyme (hen) (UniProt P00698). As to the kind of experiment: SPR (Biacore 2000), biotinylated antigen on streptavidin chip, purified VH.
Experiment [2] deals with T1, human prolactin receptor (human) (UniProt P16471).
T1 sequence (looked up): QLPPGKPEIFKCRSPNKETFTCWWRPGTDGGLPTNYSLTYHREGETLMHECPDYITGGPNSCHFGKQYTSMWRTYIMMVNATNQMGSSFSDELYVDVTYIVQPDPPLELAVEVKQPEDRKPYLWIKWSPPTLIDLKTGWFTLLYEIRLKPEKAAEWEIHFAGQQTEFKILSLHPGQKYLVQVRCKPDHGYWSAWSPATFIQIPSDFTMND
The experiment is described as above.

B1: VHHEL_G08 (anti-HEL VH) (protein)
VH: EVQLLESGGGLVQPGGSLRLSCAASGFRISDEDMGWVRQAPGKGLEWVSYIDNNGYSTYYADSVKGRFTISRDNSKNTLYLQMNSLRAEDTAVYYCAKKQYGYQNGGFDYWGQGTLVTVSS
Turning to B1, in experiment [1], the binding entry is listed as “binds”.

B2: VHPRLR_C02 (anti-hPRLR VH) (protein)
VH: EVQLLESGGGLVQPGGSLRLSCAASGFRFADEDMGWVRQAPGKGLEWVSDISGDGYSTYYADSVKGRFTISRDNSKNTLYLQMNSLRAEDTAVYYCAKLPPVYLGGAFDYWGQGTLVTVSS
Consider B2, for which, in experiment [2], the binding entry was “binds”.
